Measured values published in PubChem BioAssay AID1487 (National Center for Advancing Translational Sciences (NCATS), 2009).
The other results are listed elsewhere or left out. These are further read-outs of the screen, such as a control signal, another cell line or another target. No call is given for them. Most of these compounds were active or inconclusive in the main read-out, so they are no random draw. The note in brackets gives the kind of curve behind each potency; many fits are weak.

Experiment: qHTS Assay for Modulators of Lamin A Splicing
Settings: HeLa LMNA splicing GFP/RFP minigene ratio, 48 h
How it was run: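 S3 HeLa stable clones carrying a lamin A-EGFP splicing minigene plus DsRed2 were seeded at 600 cells/well in Opti-MEM with 2% FBS, pin-dosed and incubated 48 h at 37°C. Acumen cytometry (488 nm) gave the GFP/RFP total-intensity ratio.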

[1] = measured here: GFP splicing reporter channel
[2] = measured here: RFP viability control channel

Compound | AC50 [1] | AC50 [2]
O=C1c2ccc3c4c(ccc(c24)C(=O)N1CCCCO)C(=O)N(CCCCO)C3=O | 2.82 µM [falling, full curve] | 3.16 µM [falling, full curve]
CC[C@H]1OC(=O)[C@H](C)[C@@H](O[C@H]2C[C@@](C)(OC)[C@@H](O)[C@H](C)O2)[C@H](C)[C@@H](O[C@@H]2O[C@H](C)C[C@H](N(C)C)[C@H]2O)[C@](C)(O)C[C@@H](C)[C@@H]2N[C@@H](COCCOC)O[C@H]([C@H]2C)[C@]1(C)O | 0.708 µM [falling, partial curve, poor fit] | 35.5 µM [falling, partial curve, poor fit]
O=C(Nc1nc(-c2ccc(F)cc2)cs1)c1ccc(N2C(=O)CCC2=O)cc1 | 2.82 µM [rising, full curve, poor fit] | 6.31 µM [rising, full curve]
S=C(NCc1cccnc1)Nc1ccc(Oc2ccccc2)cc1 | 3.55 µM [falling, partial curve] | 3.55 µM [falling, partial curve]
Cc1cc(Cl)ccc1NS(=O)(=O)c1ccc2c(c1)CC(C)N2C(=O)C1CCC1 (stereo not drawn) | – | 12.6 µM [rising, single point]
C/C(=N\Nc1ccc([N+](=O)[O-])cc1)c1cc2ccccc2o1 | 0.0891 µM [rising, full curve, poor fit] | 0.0398 µM [rising, full curve, poor fit]
CC(C)c1onc(C(=O)N2CCCCCC2)c1[N+](=O)[O-] | 1 µM [rising, full curve, poor fit] | –
Cc1nnc2c3ccccc3c(-c3cccs3)nn12 | 7.08 µM [falling, partial curve] | –
O=C(Nc1cc(Cl)cc(Cl)c1)c1ccc(Cn2c(=O)[nH]c3ccsc3c2=O)cc1 | – | 3.16 µM [rising, full curve, poor fit]
CCCOc1ccc(Cc2c(Cl)nc(SC)nc2N(C)C)cc1 | – | 11.2 µM [rising, partial curve]
C[C@H](O)C(=O)Nc1c(I)c(C(=O)NC(CO)CO)c(I)c(C(=O)NC(CO)CO)c1I | 3.16 µM [falling, single point] | 1.41 µM [falling, single point]
COC(=O)c1[nH]c2ccccc2c1NC(=O)CN1CCCc2ccccc21 | – | 17.8 µM [rising, single point]
CCOc1cc(C2C(C(=O)OC)=C(C)NC3=C2C(=O)c2ccccc23)c(Br)cc1O (stereo not drawn) | 35.5 µM [falling, single point] | 0.00794 µM [falling, full curve, poor fit]
S=c1[nH]cc(-c2ccccc2)n1-c1cccc(Cl)c1 | 17.8 µM [rising, partial curve] | 35.5 µM [rising, single point]
Cc1nn(-c2ccccc2)c(N)c1C(c1ccc(C(C)C)cc1)c1c(C)nn(-c2ccccc2)c1N | – | 11.2 µM [rising, partial curve]
Nc1[nH]nc2nc(N3CCOCC3)nc(-c3ccccc3)c12 | – | 35.5 µM [rising, single point]
O=c1c(=O)n(Cc2c(F)cccc2Cl)ccn1Cc1ccccc1 | – | 31.6 µM [rising, single point]
Cc1nn(Cc2cccc(C(=O)N3CCCC(C)C3)c2)c(C)c1[N+](=O)[O-] (stereo not drawn) | – | 17.8 µM [rising, single point]
CCn1c(-c2ccc(Cl)cc2)n[nH]c1=S | – | 12.6 µM [falling, partial curve, poor fit]

Look-ups from the entries so far.
Entry for Cc1nn(Cc2cccc(C(=O)N3CCCC(C)C3)c2)c(C)c1[N+](=O)[O-] (stereo not drawn) under AC50 [2]: 17.8 µM [rising, single point]
Entry for O=C(Nc1cc(Cl)cc(Cl)c1)c1ccc(Cn2c(=O)[nH]c3ccsc3c2=O)cc1 under AC50 [2]: 3.16 µM [rising, full curve, poor fit]

(listing goes on)

Compound | AC50 [1] | AC50 [2]
O=C(CSc1nnnn1-c1ccccc1)Nc1ncc2c(n1)CC(c1ccco1)CC2=O (stereo not drawn) | 17.8 µM [rising, partial curve, poor fit] | –
O=C(C1CCCO1)N1CCN(C(=S)Nc2ccc(Cl)cc2Cl)CC1 (stereo not drawn) | 12.6 µM [rising, single point] | 14.1 µM [rising, partial curve]
COc1ccc(/C=C2\CCCC3C2=NN(C(=O)COC(=O)CNC(=O)c2ccccc2)C3c2ccc(OC)cc2)cc1 (stereo not drawn) | – | 20 µM [rising, single point]
Cc1cccc(C#Cc2ccccc2)n1 | – | 0.00224 µM [falling, full curve, poor fit]
COc1cccc(-n2c(=O)c3c(C)c(C(=O)N(C)C)sc3n(CC(=O)NCC3CCCO3)c2=O)c1 (stereo not drawn) | – | 0.0708 µM [falling, full curve, poor fit]
O=C(CN1C(=O)C2CCCCN2c2ccc(C(=O)N3CCCC3)cc21)NCc1cccc(F)c1 (stereo not drawn) | 5.62 µM [falling, partial curve, poor fit] | –
COc1ccc(NC(=O)Nc2ccccc2OCc2cc(=O)n3ccccc3n2)c(OC)c1 | 35.5 µM [falling, single point] | 35.5 µM [falling, single point]
COc1ccc(-c2nc(NC(=O)C3CCN(c4nc5ccccc5o4)CC3)sc2C)cc1 | – | 11.2 µM [rising, partial curve]
CC(=O)OC1CC2CCC1(C)C2(C)C (stereo not drawn) | 35.5 µM [rising, single point] | –
CCN(CC)CCOc1ccc2nc(N(C)C)sc2c1 | – | 1.41 µM [rising, partial curve, poor fit]
CCOC(=O)N1CCC(Nc2ncnc3c2cnn3-c2ccc(C)cc2C)CC1 | – | 14.1 µM [rising, partial curve]
O=C(NCc1ccccc1)c1ccc2c(c1)nc1n2CCCCC1 | 0.708 µM [rising, single point] | 0.794 µM [rising, full curve, poor fit]
Cn1cnnc1Sc1ccc(/C=C/C(=O)c2ccc(O)cc2)cc1[N+](=O)[O-] | 0.0891 µM [falling, full curve] | 0.112 µM [falling, full curve, poor fit]
Cc1cc(C)n(Cc2ccc(C(=O)Nc3ccc(Br)cc3C)o2)n1 | – | 35.5 µM [rising, single point]
CCOc1cccc(C(=O)Nc2ccc3oc(Cc4ccc(Cl)cc4)nc3c2)c1 | – | 6.31 µM [rising, full curve]
CCn1ccc(C(=O)Nc2ccc(S(=O)(=O)Nc3ccccc3OC)cc2)n1 | 17.8 µM [rising, single point] | 22.4 µM [rising, single point]
COc1ccc(N(CC(=O)Nc2ccc(S(=O)(=O)N3CCCCC3)cc2)S(C)(=O)=O)cc1OC | – | 0.0224 µM [rising, full curve, poor fit]
N#Cc1ccc(C(=O)NCC(c2ccco2)N2CCCC2)cc1 (stereo not drawn) | – | 0.00794 µM [falling, full curve, poor fit]
CCn1c(Cc2ccccc2)nnc1SCC(=O)Nc1ccc2c(c1)OCO2 | 12.6 µM [rising, partial curve] | –

Compound | AC50 [1] | AC50 [2]
COc1cc2c(cc1OC)CN(C(=O)CC1CC3CCC1C3)CC2 (stereo not drawn) | – | 35.5 µM [rising, single point]
COc1ccc(C(=O)Nc2ccc(NC(=O)C(C)C)nc2)cc1 | – | 0.631 µM [falling, partial curve]
O=C(O)C1Cc2[nH]cnc2C(c2ccccc2O)N1 (stereo not drawn) | 0.0316 µM [falling, partial curve, poor fit] | –
COc1ccc(-n2c(NN)nc3sc4c(c3c2=O)CCCC4)cc1 | 11.2 µM [falling, partial curve] | –
O=C(Nc1ccc(Cl)cc1)Nc1cnccn1 | 3.16 µM [falling, partial curve] | –
Cc1cccc(C)c1NC(=O)c1ccc(-c2ccc(Cl)cc2Cl)o1 | – | 35.5 µM [rising, single point]
CCOC(=O)c1c(NC(=O)c2c(-c3ccccc3)noc2C)sc(C)c1-c1ccccc1 | – | 0.112 µM [rising, full curve, poor fit]
CCOC(=O)c1c(CN(C)C)n(C)c2ccc(OC(C)=O)cc12 | – | 0.0447 µM [rising, full curve, poor fit]
Cc1[nH][nH]c(=O)c1/C=N/N1CCOCC1 | 6.31 µM [falling, single point] | –
CC(C)Cn1c(CNC(=O)c2ccccc2)nc2ccccc21 | – | 31.6 µM [rising, single point]
N/C(Cn1cncn1)=N\OC(=O)c1ccc(Cl)cc1Cl | 1.41 µM [rising, full curve] | 3.16 µM [rising, partial curve, poor fit]
Cc1cc(C)c(NC(=S)N(Cc2cccnc2)Cc2ccco2)c(C)c1 | – | 35.5 µM [rising, single point]
COc1ccc(Nc2nc(CC(C)=O)ns2)cc1 | – | 31.6 µM [rising, single point]
COc1ccc(C/C(O)=C(\C#N)c2nc3ccccc3s2)cc1 | – | 31.6 µM [rising, single point]
Cc1ccc(C(=O)NC(=S)Nc2ccc(N3CCOCC3)cc2)c(C)c1 | 0.0316 µM [falling, full curve, poor fit] | 0.00316 µM [falling, full curve, poor fit]
CCCOc1ccc(NC(=O)C2CC(=O)N/C(=N/N=C(C)/C=C/c3ccc(N(C)C)cc3)S2)cc1 (stereo not drawn) | 0.1 µM [rising, full curve, poor fit] | 0.0224 µM [rising, full curve, poor fit]
COc1cccc(Cn2c(=O)c(C)nc3cnc(OC)nc32)c1 | 17.8 µM [falling, partial curve] | –
COc1ccc(-c2csc3nc(-c4ccccc4F)oc(=O)c23)cc1OC | 14.1 µM [falling, single point] | 22.4 µM [falling, single point]
